The target of assay [1] is GST-tagged OPTN (optineurin) (UniProt Q96CV9). The assay is described as follows: pull-down; purified GST-tagged protein (20 ug) and His6-tagged protein (20 ug) with 50 uL Glutathione Sepharose 4B, 4°C overnight in 1 mL buffer (20 mM Tris-HCl, 5 mM MgCl2, 100 mM NaCl, 1 mM EDTA, 1% NP-40, 1 mM DTT, pH 7.4, 10 mg/L BSA); five washes; immunoblotting; both purified.
A further assay has as its target GST-tagged p62 (UniProt Q13501). The description is as above.

Protein sequences, listed by entry. Tags and fused reporters are not part of them.
UniProt Q96CV9: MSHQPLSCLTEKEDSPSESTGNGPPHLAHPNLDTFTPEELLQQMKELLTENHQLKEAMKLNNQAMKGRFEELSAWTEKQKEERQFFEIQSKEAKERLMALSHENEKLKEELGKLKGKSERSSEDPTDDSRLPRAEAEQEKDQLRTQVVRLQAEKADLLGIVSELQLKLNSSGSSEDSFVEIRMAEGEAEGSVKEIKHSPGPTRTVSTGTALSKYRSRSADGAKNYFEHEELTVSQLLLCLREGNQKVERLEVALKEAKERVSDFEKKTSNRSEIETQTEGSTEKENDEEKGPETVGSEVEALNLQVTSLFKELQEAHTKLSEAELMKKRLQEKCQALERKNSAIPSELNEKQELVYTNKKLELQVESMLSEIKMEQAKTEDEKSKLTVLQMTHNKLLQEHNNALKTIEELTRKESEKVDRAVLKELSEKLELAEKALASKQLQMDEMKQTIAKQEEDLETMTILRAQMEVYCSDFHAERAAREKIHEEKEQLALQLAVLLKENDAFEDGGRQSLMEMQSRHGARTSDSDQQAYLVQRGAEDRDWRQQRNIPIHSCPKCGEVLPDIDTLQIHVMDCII

From paper PMC11322865 come the findings set out here.

These are yes or no findings as the source states them, for the method shown. Some entries that bind do so weakly or less than the wild type. Where a sequence is shown, tags or fusion partners need not be part of it.

B1: His6-tagged HACE1 (protein, UniProt Q8IYU2 1-909)
chain: MERAMEQLNRLTRSLRRARTVELPEDNETAVYTLMPMVMADQHRSVSELLSNSKFDVNYAFGRVKRSLLHIAANCGSVECLVLLLKKGANPNYQDISGCTPLHLAARNGQKKCMSKLLEYSADVNICNNEGLTAIHWLAVNGRTELLHDLVQHVSDVDVEDAMGQTALHVACQNGHKTTVQCLLDSGADINRPNVSGATPLYFACSHGQRDTAQILLLRGAKYLPDKNGVTPLDLCVQGGYGETCEVLIQYHPRLFQTIIQMTQNEDLRENMLRQVLEHLSQQSESQYLKILTSLAEVATTNGHKLLSLSSNYDAQMKSLLRIVRMFCHVFRIGPSSPSNGIDMGYNGNKTPRSQVFKPLELLWHSLDEWLVLIATELMKNKRDSTEITSILLKQKGQDQDAASIPPFEPPGPGSYENLSTGTRESKPDALAGRQEASADCQDVISMTANRLSAVIQAFYMCCSCQMPPGMTSPRFIEFVCKHDEVLKCFVNRNPKIIFDHFHFLLECPELMSRFMHIIKAQPFKDRCEWFYEHLHSGQPDSDMVHRPVNENDILLVHRDSIFRSSCEVVSKANCAKLKQGIAVRFHGEEGMGQGVVREWFDILSNEIVNPDYALFTQSADGTTFQPNSNSYVNPDHLNYFRFAGQILGLALNHRQLVNIYFTRSFYKHILGIPVNYQDVASIDPEYAKNLQWILDNDISDLGLELTFSVETDVFGAMEEVPLKPGGGSILVTQNNKAEYVQLVTELRMTRAIQPQINAFLQGFHMFIPPSLIQLFDEYELELLLSGMPEIDVSDWIKNTEYTSGYEREDPVIQWFWEVVEDITQEERVLLLQFVTGSSRVPHGGFANIMGGSGLQNFTIAAVPYTPNLLPTSSTCINMLKLPEYPSKEILKDRLLVALHCGSYGYTMA
Take B1: the binding entry in assay [1] was “binds”; with GST-tagged p62 it was “no binding (tested: 20 ug of each protein in 1 mL)”.
